# Reference: the supplement of paper PMC8728848
# The other results are listed elsewhere or left out.
# Columns and labels:
# Experiment in all cases: glycan array binding signal (z-score within array); higher = stronger binding
# Conditions in all cases: glycan notation: IUPAC condensed, linker removed
# [1] = biological target: GalNAc(b1-4)GlcNAc(b1-2)Man
# Method in brief: (§1)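 The binding signal is a Z-score computed within each array. Data were drawn from 3228 arrays in the Consortium for Functional Glycomics database, restricted to those with a known protein sequence. Scores were averaged over arrays of the same protein sequence at different concentrations or buffers, and over linkers, and negative values can be taken as non-binding.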
# [2] = biological target: GalNAc(b1-4)GlcNAc(b1-2)Man(a1-3)[GalNAc(b1-4)GlcNAc(b1-2)Man(a1-6)]Man(b1-4)GlcNAc(b1-4)GlcNAc
# Method in brief: as §1
# [3] = biological target: GalNAc(b1-4)GlcNAc(b1-3)GalNAc(b1-4)GlcNAc
# Method in brief: as §1
# GalNAc(b1-4)GlcNAc6S = biological target: GalNAc(b1-4)GlcNAc6S
# Method in brief: as §1
# GalNAc(b1-6)GalNAc = biological target: GalNAc(b1-6)GalNAc
# Method in brief: as §1
# GalNAc3S(b1-4)GlcNAc = biological target: GalNAc3S(b1-4)GlcNAc
# Method in brief: as §1
# GalNAc3S(b1-4)GlcNAc3S = biological target: GalNAc3S(b1-4)GlcNAc3S
# Method in brief: as §1
# [4] = biological target: GalNAc3S(b1-4)[Fuc(a1-3)]GlcNAc
# Method in brief: as §1
# GalNAc4S6S(b1-4)GlcNAc = biological target: GalNAc4S6S(b1-4)GlcNAc
# Method in brief: as §1
# GalNAc6S(b1-4)GlcNAc = biological target: GalNAc6S(b1-4)GlcNAc
# Method in brief: as §1
# Glc(a1-4)Glc = biological target: Glc(a1-4)Glc
# Method in brief: as §1
# [5] = biological target: Glc(a1-4)Glc(a1-4)Glc(a1-4)Glc
# Method in brief: as §1
# Glc(a1-6)Glc(a1-6)Glc = biological target: Glc(a1-6)Glc(a1-6)Glc
# Method in brief: as §1
# [6] = biological target: Glc(a1-6)Glc(a1-6)Glc(a1-6)Glc
# Method in brief: as §1
# Glc(b1-4)Glc = biological target: Glc(b1-4)Glc
# Method in brief: as §1
# Glc(b1-6)Glc = biological target: Glc(b1-6)Glc
# Method in brief: as §1
# GlcA(b1-3)Gal = biological target: GlcA(b1-3)Gal
# Method in brief: as §1
# GlcA(b1-3)GlcNAc = biological target: GlcA(b1-3)GlcNAc
# Method in brief: as §1
# GlcA(b1-6)Gal = biological target: GlcA(b1-6)Gal
# Method in brief: as §1
# [7] = biological target: GlcA3S(b1-3)Gal(b1-4)GlcNAc(b1-2)Man
# Method in brief: as §1
# [8] = biological target: GlcA3S(b1-3)Gal(b1-4)GlcNAc(b1-3)Gal(b1-4)Glc
# Method in brief: as §1
# [9] = biological target: GlcNAc(a1-3)Gal(b1-4)GlcNAc
# Method in brief: as §1
# [10] = biological target: GlcNAc(a1-4)Gal(b1-3)GlcNAc
# Method in brief: as §1
# [11] = biological target: GlcNAc(a1-4)Gal(b1-4)GalNAc
# Method in brief: as §1
# [12] = biological target: GlcNAc(a1-4)Gal(b1-4)GlcNAc
# Method in brief: as §1
# [13] = biological target: GlcNAc(a1-4)Gal(b1-4)GlcNAc(b1-3)Gal(b1-4)Glc
# Method in brief: as §1
# [14] = biological target: GlcNAc(a1-4)Gal(b1-4)GlcNAc(b1-3)Gal(b1-4)GlcNAc
# Method in brief: as §1
# [15] = biological target: GlcNAc(a1-4)Gal(b1-4)GlcNAc(b1-3)Gal(b1-4)GlcNAc(b1-3)Gal(b1-4)GlcNAc
# Method in brief: as §1
# [16] = biological target: GlcNAc(a1-4)Gal(b1-4)GlcNAc(b1-3)Gal(b1-4)[Fuc(a1-3)]GlcNAc(b1-3)Gal(b1-4)[Fuc(a1-3)]GlcNAc
# Method in brief: as §1
# [17] = biological target: GlcNAc(a1-6)Gal(b1-4)GlcNAc
# Method in brief: as §1
binder,measurement,setting,value
"Protein L(A-C2) (Finegoldia magna), Q51912 (protein) ADEPIDLEKLEEKRDKENVGNLPKFDNEVKDGSENPMAKYPDFDDEASTRFETENNEFEEKKVVSDNFFDQSEHPFVENKEETPETPETDSEEEVTIKANLIFANGSTQTAEFKGTFEKATSEAYAYADTLKKDNGEYTVDVADKGYTLNIKFAGKEKTPEEPKEEVTIKANLIYADGKTQTAEFKGTFEEATAEAYRYADALKKDNGEYTVDVADKGYTLNIKFAGKEKTPEEPKEEVTIKANLIYADGKTQTAEFKGTFEEATAEAYRYADLLAKENGKYTVDVADKGYTLNIKFAGKEKTPEEPKEEVTIKANLIYADGKTQTAEFKGTFAEATAEAYRYADLLAKENGKYTADLEDGGYTINIRFAGKKVDEKPEEKEQVTIKENIYFEDGTVQTATFKGTFAEATAEAYRYADLLSKEHGKYTADLEDGGYTINIRFAGKEEPEETPEKPEVQDGYASYEEAEAAAKEALKNDDVNKSYTIRQGADGRYYYVLSPVEAEEEKPEAQNGYATYEEAEAAAKKALENDPINKSYSIRQGADGRYYYVLSPVEAE",glycan array binding signal (z-score),[1],-0.161
same,glycan array binding signal (z-score),[2],1.78
same,glycan array binding signal (z-score),[3],-0.888
same,glycan array binding signal (z-score),GalNAc(b1-4)GlcNAc6S,-1.08
same,glycan array binding signal (z-score),GalNAc(b1-6)GalNAc,-0.685
same,glycan array binding signal (z-score),GalNAc3S(b1-4)GlcNAc,-0.166
same,glycan array binding signal (z-score),GalNAc3S(b1-4)GlcNAc3S,-0.544
same,glycan array binding signal (z-score),[4],0.683
same,glycan array binding signal (z-score),GalNAc4S6S(b1-4)GlcNAc,-0.803
same,glycan array binding signal (z-score),GalNAc6S(b1-4)GlcNAc,-0.775
same,glycan array binding signal (z-score),Glc(a1-4)Glc,-0.316
same,glycan array binding signal (z-score),[5],0.546
same,glycan array binding signal (z-score),Glc(a1-6)Glc(a1-6)Glc,-1.06
same,glycan array binding signal (z-score),[6],0.057
same,glycan array binding signal (z-score),Glc(b1-4)Glc,0.308
same,glycan array binding signal (z-score),Glc(b1-6)Glc,-0.685
same,glycan array binding signal (z-score),GlcA(b1-3)Gal,-0.562
same,glycan array binding signal (z-score),GlcA(b1-3)GlcNAc,-0.343
same,glycan array binding signal (z-score),GlcA(b1-6)Gal,-0.08
same,glycan array binding signal (z-score),[7],-0.286
same,glycan array binding signal (z-score),[8],-0.644
same,glycan array binding signal (z-score),[9],-0.967
same,glycan array binding signal (z-score),[10],-0.776
same,glycan array binding signal (z-score),[11],0.693
same,glycan array binding signal (z-score),[12],-0.918
same,glycan array binding signal (z-score),[13],-0.042
same,glycan array binding signal (z-score),[14],-0.652
same,glycan array binding signal (z-score),[15],-0.507
same,glycan array binding signal (z-score),[16],0.36
same,glycan array binding signal (z-score),[17],-0.792

# Pulled one by one from the entries so far (two):
binder,measurement,setting,value
"Protein L(A-C2) (Finegoldia magna), Q51912 (protein) ADEPIDLEKLEEKRDKENVGNLPKFDNEVKDGSENPMAKYPDFDDEASTRFETENNEFEEKKVVSDNFFDQSEHPFVENKEETPETPETDSEEEVTIKANLIFANGSTQTAEFKGTFEKATSEAYAYADTLKKDNGEYTVDVADKGYTLNIKFAGKEKTPEEPKEEVTIKANLIYADGKTQTAEFKGTFEEATAEAYRYADALKKDNGEYTVDVADKGYTLNIKFAGKEKTPEEPKEEVTIKANLIYADGKTQTAEFKGTFEEATAEAYRYADLLAKENGKYTVDVADKGYTLNIKFAGKEKTPEEPKEEVTIKANLIYADGKTQTAEFKGTFAEATAEAYRYADLLAKENGKYTADLEDGGYTINIRFAGKKVDEKPEEKEQVTIKENIYFEDGTVQTATFKGTFAEATAEAYRYADLLSKEHGKYTADLEDGGYTINIRFAGKEEPEETPEKPEVQDGYASYEEAEAAAKEALKNDDVNKSYTIRQGADGRYYYVLSPVEAEEEKPEAQNGYATYEEAEAAAKKALENDPINKSYSIRQGADGRYYYVLSPVEAE",glycan array binding signal (z-score),GalNAc(b1-6)GalNAc,-0.685
same,glycan array binding signal (z-score),[1],-0.161
